# Data as given in PubChem BioAssay AID652243 (Drosophila RNAi Screening Center, 2013).
# Assay: 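Fly genes required for human androgen receptor driven transcription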 (primary screen)
# Cell system: Drosophila S2R+ cells
# Reagents: long dsRNA against Drosophila genes
# Timing: 72 h (48 h, then 24 h hormone)
# Treatment: synthetic androgen R1881 at 10 nM for 24 h
# Read-out: 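Per-well raw luminescence of the androgen-driven firefly reporter and of the Renilla control, two replicates each, without normalisation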
# Direction: firefly reporter light: higher = more light from androgen-responsive reporter; Renilla control light: higher = more constitutive control signal (cell number, transfection)
# Call rule: 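Across duplicate plates, a knock-down whose log firefly/Renilla ratio shifted a set fold down or up from the GFP/LacZ control mean was a hit; the downward cut appears as both 1.5 and 3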
# Meaning of the calls: active = hit: reporter lowered or raised; inactive = no hit
# In all, the deposit lists about 24,000 reagents; this is a random part of those that have a named target and a result. In the full data, 246 (1%) got an active call. 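Plates not normalised; calls are printed but the firefly/Renilla ratio behind them is not deposited; fold cut for lowering reported inconsistently.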 The raw values are shown without normalisation. A plus sign joins genes that one reagent is predicted to hit. Not given: the amount of reagent.
predicted target,DRSC id,"firefly reporter light, replicate 1","firefly reporter light, replicate 2","Renilla control light, replicate 1","Renilla control light, replicate 2",Call
NimC2,DRSC01881,1.77e5,1.82e5,1.69e6,1.82e6,inactive
wntD,DRSC16423,1.12e5,1.23e5,2.24e6,2.05e6,inactive
wntD,DRSC28538,3.44e5,5.09e5,8.03e5,1.33e6,inactive
CG14013,DRSC02344,34035,50910,5.60e5,5.47e5,inactive
Hesr,DRSC19965,8.37e5,6.87e5,5.16e6,5.24e6,inactive
Ada3,DRSC20321,6.18e5,5.96e5,2.85e6,3.24e6,inactive
Ada3,DRSC20322,7.51e5,5.83e5,1.86e6,2.07e6,inactive
CG44838,DRSC10371,6.86e5,5.58e5,1.31e6,1.29e6,inactive
CG44838,DRSC28801,5.39e5,4.32e5,8.99e5,7.89e5,inactive
Rb97D,DRSC16815,62601,51526,1.65e6,2.06e6,inactive
Rb97D,DRSC25278,2.38e5,3.00e5,5.60e5,4.81e5,inactive
Claspin,DRSC08308,5.42e5,3.47e5,2.70e6,3.39e6,inactive
CG9514,DRSC20190,4.56e5,5.65e5,2.97e6,3.27e6,inactive
CG9514,DRSC20191,3.51e5,3.88e5,2.96e6,3.32e6,inactive
CG9514,DRSC30059,1.05e6,7.75e5,1.11e6,1.00e6,inactive
CG31635,DRSC02273,82230,93239,1.06e6,1.30e6,inactive
Tektin-A,DRSC01921,8.34e5,7.81e5,2.12e6,2.45e6,inactive
Tret1-2,DRSC07117,4.18e5,2.92e5,1.61e6,2.07e6,inactive
Tret1-2,DRSC28985,6.29e5,4.16e5,1.27e6,9.54e5,inactive
CG14417,DRSC18638,5.84e5,8.11e5,4.97e6,4.33e6,inactive
pxb,DRSC13110,1.64e5,1.36e5,1.74e5,2.17e5,inactive
pxb,DRSC14996,10640,15381,57290,95522,inactive
pxb,DRSC14997,2.37e5,1.88e5,2.44e6,1.98e6,inactive
pxb,DRSC22225,9.56e5,9.07e5,2.05e6,2.01e6,inactive
pxb,DRSC25214,4.92e5,4.78e5,5.11e5,5.88e5,inactive
CG31560,DRSC12136,1.27e5,1.61e5,3.34e6,3.31e6,inactive
Sr-CII,DRSC07557,1.10e5,1.19e5,1.22e6,1.16e6,inactive
Sr-CII,DRSC25606,2.50e5,2.57e5,5.51e5,3.13e5,inactive
CG1074,DRSC12143,4.43e5,5.10e5,1.74e6,1.54e6,inactive
CG1074,DRSC29045,6.50e5,5.54e5,1.72e6,1.42e6,inactive

Copied from above (9 entries):
predicted target,DRSC id,"firefly reporter light, replicate 1","firefly reporter light, replicate 2","Renilla control light, replicate 1","Renilla control light, replicate 2",Call
wntD,DRSC16423,1.12e5,1.23e5,2.24e6,2.05e6,inactive
wntD,DRSC28538,3.44e5,5.09e5,8.03e5,1.33e6,inactive
CG14013,DRSC02344,34035,50910,5.60e5,5.47e5,inactive
Hesr,DRSC19965,8.37e5,6.87e5,5.16e6,5.24e6,inactive
Ada3,DRSC20321,6.18e5,5.96e5,2.85e6,3.24e6,inactive
Ada3,DRSC20322,7.51e5,5.83e5,1.86e6,2.07e6,inactive
CG44838,DRSC10371,6.86e5,5.58e5,1.31e6,1.29e6,inactive
CG44838,DRSC28801,5.39e5,4.32e5,8.99e5,7.89e5,inactive
Rb97D,DRSC16815,62601,51526,1.65e6,2.06e6,inactive

Continued:
predicted target,DRSC id,"firefly reporter light, replicate 1","firefly reporter light, replicate 2","Renilla control light, replicate 1","Renilla control light, replicate 2",Call
shep,DRSC09765,1.64e5,1.86e5,1.84e6,2.58e6,inactive
shep,DRSC09771,7.47e5,5.09e5,1.23e6,1.13e6,inactive
shep,DRSC26847,9.84e5,6.49e5,1.01e6,8.53e5,inactive
mRpL43,DRSC04508,2.61e5,2.75e5,1.28e6,2.22e6,inactive
mRpL43,DRSC22571,6.89e5,5.29e5,2.19e6,1.82e6,inactive
BckdhA,DRSC16395,1.16e5,1.50e5,2.07e6,2.65e6,inactive
Or30a,DRSC03385,3.09e5,3.11e5,1.61e6,2.07e6,inactive
CG15247,DRSC17976,1.62e5,2.07e5,2.35e6,2.57e6,inactive
CG15247,DRSC24221,5.77e5,5.78e5,1.03e6,1.19e6,inactive
Hs3st-B,DRSC20067,50029,52784,1.49e5,1.30e5,inactive
CG32069 + Blos2,DRSC10621,8.20e5,7.94e5,2.02e6,1.81e6,inactive
CG34309,DRSC14838,91608,1.16e5,1.80e6,1.74e6,inactive
AhcyL1,DRSC08647,89728,75662,1.31e6,9.53e5,inactive
AhcyL1,DRSC25573,6.03e5,2.69e5,3.90e5,4.75e5,inactive
CG3014,DRSC15458,79475,1.18e5,1.63e6,1.78e6,inactive
CG31999,DRSC17131,2.74e5,3.74e5,2.44e6,1.83e6,inactive
CG31999,DRSC17133,2.69e5,2.22e5,5.11e6,3.20e6,inactive
NO66,DRSC18252,1.42e5,1.05e5,8.91e5,7.19e5,inactive
CG32201,DRSC22452,6.76e5,9.42e5,8.54e5,1.72e6,inactive
Mp,DRSC10193,6.33e5,6.88e5,1.75e6,1.90e6,inactive
Mp,DRSC11029,1.76e5,2.00e5,2.04e6,2.34e6,inactive
Mp,DRSC11030,1.94e5,1.20e5,2.19e6,1.46e6,inactive
TBPH,DRSC04660,5.54e5,8.02e5,1.06e6,1.56e6,inactive
TBPH,DRSC28032,8.94e5,9.11e5,1.90e6,1.89e6,inactive
Hip1,DRSC09812,1.03e6,1.01e6,1.72e6,1.79e6,inactive
CG10669,DRSC14261,1.05e5,1.43e5,1.04e6,1.83e6,inactive
CHES-1-like,DRSC18447,1.23e5,1.56e5,2.82e6,2.25e6,inactive
CG31800,DRSC22525,8.17e5,7.44e5,2.53e6,2.15e6,inactive
CG31800,DRSC29916,5.41e5,3.44e5,1.39e6,1.45e6,inactive
